Experimental data reported in article PMC12336824 (The Journal of Biological Chemistry, 2025).
Where “and” joins values, the source holds several entries; their conditions need not be identical. Equal entries are not always repeated.

Legend:
NQR = NQR (Vibrio cholerae serotype O1, UniProt Q9KPS2+Q9X4Q6); assay: biochemical
V. cholerae NQR complex = V. cholerae NQR complex (Vibrio cholerae serotype O1, UniProt Q9KPS2+Q9X4Q6); assay: biochemical

SMILES	Ki (NQR; Kic)	Ki (NQR; Kiu)	IC50 (V. cholerae NQR complex) [µM]	inhibition at 50 µM (V. cholerae NQR complex; read-out: inhibition of the ubiquinone reductase activity) [%]	inhibition of the ubiquinone reductase activity (V. cholerae NQR complex)
CSc1ccc2c(c1)N(CCC1CCCCN1C)c1ccccc1S2 (centres unmarked) [thioridazine]	35 µM and 70 µM	38 µM and 37 µM	22 ± 6	60	
CN1CCN(CCCN2c3ccccc3Sc3ccc(Cl)cc32)CC1 [prochlorperazine]					did not produce a comparable inhibition
